# Source: PubChem BioAssay AID587 (National Center for Advancing Translational Sciences (NCATS), 2007)
# “And” between values parts separate entries of the source, which are not always exact repeats. Identical values can stand only once. About 35 (0.06%) of roughly 59,000 compounds were called active. The shares of active, inactive and inconclusive entries below differ from those in the screen. Rule as the data show it: active = max dye-equivalent concentration above about 10 nM; inconclusive = between about 1.1 nM and that limit; inactive = weaker than that.
# Assay: qHTS Assay for Spectroscopic Profiling in Texas Red Spectral Region
# Details: Compound fluorescence, Texas Red channel, 547/618 nm; active compounds read high
# Procedure, shortened: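 Pin-transferred compounds and Texas Red standards go into 100 mM Tris buffer, pH 8.0. After 15 min at room temperature, plates are imaged with 547/618 nm filters. Each value is a dye-equivalent concentration derived from the per-plate dye curve.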
row,SMILES,max dye-equivalent concentration
1,CCCn1c(SCC(=O)Nc2nccs2)nnc1-c1cccnc1,inconclusive: 1.5e-09 M
2,CCCc1cc(COC)c(C#N)c(=O)[nH]1,inactive
3,Cc1cccc(C)c1NC(=O)Cn1nnc(-c2ccc(N3CCOCC3)cc2)n1,inconclusive: 1.5e-09 M
4,CCOc1nc2ccccc2nc1NS(=O)(=O)c1ccccc1,inconclusive: 2.8e-09 M
5,CCCS(=O)(=O)N1CCC(C(=O)NC2CCCCC2C)CC1 (stereo unspecified),inconclusive: 1.1e-09 M
6,C[C@H](O)[C@H](O)[C@@H]1CNc2nc(N)[nH]c(=O)c2N1,inactive
7,CCCCCc1c(C)nc(N2CCOCC2)[nH]c1=O,inactive
8,CCc1nnc(NC(=O)CSc2nc3c(cc2C#N)CCC3)s1,inconclusive: 1.3e-09 M
9,COCCn1c(SCC(=O)Nc2cccc(C(=O)OC)c2)nc2ccccc2c1=O,inconclusive: 1.2e-09 M
10,CCN(CC)CCCNC(=O)CC1Sc2ccccc2NC1=O (stereo unspecified),inconclusive: 1.5e-09 M
11,CCn1cc(C(=O)Nc2ccc(C(=O)N3CCCC3)cc2)c(=O)c2ccc(C)nc21,inconclusive: 2.3e-09 M
12,CS(=O)(=O)N1CCC2(CCCN(Cc3cc(C(F)(F)F)cc(C(F)(F)F)c3)C2)CC1,inactive
13,Cc1nnc(SCC(=O)NCc2ccc3c(c2)OCO3)s1,inconclusive: 1.3e-09 M
14,CCc1c(O)nc(SCC(=O)Nc2ccc(C)cc2)n(C2CCCCC2)c1=O,inconclusive: 1.1e-09 M
15,Cc1cc(C)nc(N2CCC(C(=O)Nc3cccc(C(F)(F)F)c3)CC2)n1,inconclusive: 1.4e-09 M
16,CCc1ccccc1Nc1nc(N)nc(COC(=O)c2cccn2C)n1,inconclusive: 2.1e-09 M
17,O=c1c(O)c(-c2cc(O)c(O)c(O)c2)oc2cc(O)cc(O)c12,inconclusive: 1.2e-09 M
18,CCN1CCN(C(=O)N[C@H](C(=O)N[C@@H]2C(=O)N3C(C(=O)O)=C(CSc4nnnn4C)CS[C@@H]23)c2ccc(O)cc2)C(=O)C1=O,inactive
19,CC(C)(C)NC[C@H](O)c1cc(O)cc(O)c1,inactive
20,O=S(=O)(c1cccs1)N1CCN(Cc2nc3ccccc3s2)CC1,inconclusive: 1.3e-09 M
21,Cc1c(CCC#N)c(N2CCN(C3CCCCC3)CC2)n2c(nc3ccccc32)c1C#N,inactive
22,Cc1nnc(NC(=O)CSc2nnc3scc(-c4ccc(C)c(C)c4)n23)s1,inconclusive: 1.1e-09 M

row,SMILES,max dye-equivalent concentration
1,CSc1cccc(NC(=O)CN(C)S(=O)(=O)c2ccccc2)c1,inconclusive: 2.1e-09 M
2,CC(=O)c1ccc(N2C(=O)C3C(C2=O)C(C(=O)c2ccc(Cl)cc2)N2CCCC32)cc1 (stereo unspecified),inactive
3,CCOC(=O)c1cnc(-n2nc(C)cc2C)nc1NC1CCCCC1,inactive
4,CCN(CC)S(=O)(=O)c1cc(Br)c(C)cc1OC,inconclusive: 3.2e-09 M
5,Cc1cc(Oc2ccc(=O)n(C)n2)nc(Oc2ccc(=O)[nH]n2)n1,inconclusive: 1.3e-09 M
6,CC(C)(C)OC(=O)N1CCC[C@H]1c1nnc(SCc2ccc(Cl)cc2Cl)o1,inconclusive: 1.3e-09 M
7,O=C1CCCN1c1ccc(S(=O)(=O)N2CCC(c3ccccc3)CC2)cc1,inconclusive: 1.6e-09 M
8,Cc1cnc(NC(=O)CSc2nnc(-c3ccc(Cl)cc3Cl)n2N)s1,inactive
9,CSCCC(NC(N)=O)C(=O)N(C)CC(=O)Nc1ccc(C)cc1 (stereo unspecified),inconclusive: 1.5e-09 M
10,CCOC(=O)c1c(/N=C/N(C)C)sc(C(=O)OC)c1C,inconclusive: 1.7e-09 M
11,COc1ccc2c3c(c(=O)oc2c1OCC(N)=O)CCCC3,inconclusive: 1.2e-09 M
12,CC(=O)Nc1ccc2c(c1)nc(CCNC(=O)c1ccccc1)n2C,inconclusive: 1.2e-09 M
13,COc1ccccc1C1C=C(c2ccc(Cl)cc2)Nc2nc(NS(C)(=O)=O)nn21 (stereo unspecified),inconclusive: 1.3e-09 M
14,Cc1ccc(Cn2nnc3c(=O)n(Cc4cc(C)ccc4C)cnc32)cc1,inconclusive: 1.4e-09 M
15,Cc1ccc(Nc2nc(C(=O)NCCCN3CCOCC3)cs2)cc1,inconclusive: 2.1e-09 M
16,N[C@H](CCC(=O)NCS(=O)(=O)O)C(=O)O,inactive
17,Cc1cc(NS(=O)(=O)c2ccc(Cl)cc2)nn1CC(=O)NCc1ccco1,inconclusive: 1.4e-09 M
18,Cc1nnc(NC2(C(F)(F)F)C(=O)Nc3c2c(=O)n(C)c(=O)n3C)s1 (stereo unspecified),inconclusive: 1.1e-09 M
19,CC1(C)Cc2c(sc3c2c(=N)n(Cc2ccco2)c(=O)n3Cc2ccccc2)CO1,inconclusive: 1.3e-09 M
20,CCc1nnc2sc(-c3ccc(NC(=O)c4ccco4)cc3)nn12,inconclusive: 1.5e-09 M
21,Cc1cc(C(=O)CSc2nnc(-c3cccnc3)n2-c2ccccc2F)c(C)n1C,inconclusive: 1.6e-09 M
22,CC(C)C1=CC2=CC[C@H]3[C@@](C)(CCC[C@]3(C)C(=O)O)[C@@H]2CC1,inactive

row,SMILES,max dye-equivalent concentration
1,OC[C@@H]1O[C@@H](n2cnc3c(Nc4ccccc4)ncnc32)[C@@H](O)[C@H]1O,inactive
2,Cc1cc(C(=O)CSc2nnnn2-c2ccc(Cl)cc2)c(C)n1CC1CCCO1 (stereo unspecified),inconclusive: 1.4e-09 M
3,CC(=O)O[C@H]1CC[C@@]2(C)[C@@H](CC[C@@]3(C)[C@H]2C(=O)C=C2[C@H]4C[C@](C)(C(=O)OCCN5CCCCC5)CC[C@]4(C)CC[C@@]23C)C1(C)C,inactive
4,Cc1ccc(N2C(=O)[C@@H]3[C@H](C2=O)C2CCCN2[C@@H]3C(=O)c2ccccc2)cc1 (stereo partly specified),inactive
5,COc1ccc(OC)c(N2C(=O)[C@@H]3C(c4ccccc4Cl)=NO[C@@H]3C2=O)c1,inconclusive: 1.9e-09 M
6,COc1ccc(S(=O)(=O)N2CCC(C(=O)NCc3ccccn3)CC2)cc1Cl,inconclusive: 1.6e-09 M
7,CCOc1ccccc1/C=c1\sc2nc(-c3ccco3)nn2c1=O,inactive
8,CCn1cc(C(=O)O)c(=O)c2cnc(N3CCNCC3)nc21,inconclusive: 1.1e-09 M
9,COc1ccc(OCC(=O)c2c(O)c3ccccc3oc2=O)cc1,inconclusive: 1.2e-09 M
10,CC(C)(C)C(=O)CSc1nccc(=O)[nH]1,inconclusive: 1.1e-09 M
11,Cc1cc2ccc(C)c(C)c2nc1SCC#N,inconclusive: 3.6e-09 M
12,NCCS(=O)(=O)O,inconclusive: 1.4e-09 M
13,O=C(NCCCN1CCOCC1)c1cc2ccccc2oc1=O,inconclusive: 1.2e-09 M
14,O=C(NC1CCCCC1)C(c1ccc(Cl)cc1)N(C(=O)c1cnccn1)c1ccc2c(c1)OCO2 (stereo unspecified),inconclusive: 1.2e-09 M
15,C[C@@](N)(Cc1ccc(O)cc1)C(=O)O,inconclusive: 1.5e-09 M and inconclusive: 1.3e-09 M
16,COc1cc(CNc2ccc(N3CCOCC3)c(C(=O)O)c2)ccc1OCC(N)=O,inconclusive: 1.5e-09 M
17,COc1ccc(S(=O)(=O)NCC(c2cccnc2)N2CCN(c3ccccc3)CC2)cc1C (stereo unspecified),inconclusive: 1.2e-09 M
18,O=C(Nc1ccc(F)cc1)N(CCCN1CCOCC1)Cc1cc2cc3c(cc2[nH]c1=O)OCCO3,inconclusive: 1.5e-09 M
19,O=C(CCN1CCCCC1)N1CCc2c([nH]c3ccccc23)[C@H]1c1cccnc1,inactive
20,COc1ccc(C(=O)N(CCN2CCOCC2)CC(=O)NC2CCCC2)cc1OC,inactive
21,O=C(CSc1nnc(CNc2ccc(F)cc2)n1Cc1ccco1)NC1CC1,inconclusive: 2.4e-09 M
22,COc1cccc(-c2nnc(SCC(=O)N3CCOCC3)o2)c1,inconclusive: 1.1e-09 M

row,SMILES,max dye-equivalent concentration
1,CC1CCCCN1C(=O)c1cc(F)c(F)cc1Cl (stereo unspecified),inconclusive: 1.8e-09 M
2,CSc1ccc(C(=S)N2CCN(C)CC2)cc1,inconclusive: 2e-09 M
3,Cn1c(=O)oc2cc(S(=O)(=O)N3CCN(c4ccccc4)CC3)ccc21,inconclusive: 1.1e-09 M
4,O=Nc1c(-c2c(O)[nH]c3ccccc23)[nH]c2ccccc12,inactive
5,CCOc1cccc(-c2nnc3sc(COc4ccc(C)cc4)nn23)c1,inconclusive: 1.1e-09 M
6,COc1ccc(CNc2nc3nc(C)cc(C)n3n2)cc1OC,inconclusive: 1.5e-09 M
7,Cc1ccccc1CSc1ncc(C#N)c(N)n1,inconclusive: 1.1e-09 M
8,CN(C)CCN1C(=O)c2oc3ccc(Cl)cc3c(=O)c2C1c1cccc(Br)c1 (stereo unspecified),inconclusive: 1.1e-09 M
9,Cc1cc(C(F)(F)F)c2c(N)c(C(=O)Nc3cc(C)on3)sc2n1,inactive
10,c1ccc(CSc2nnc(Cc3ccccn3)o2)cc1,inconclusive: 1.3e-09 M
11,O=CN1CCN(C(C(=O)NC2CCCC2)c2ccc(Cl)cc2)CC1 (stereo unspecified),inconclusive: 1.2e-09 M
12,O=C1OCCN1/N=C\c1ccc([N+](=O)[O-])o1,inconclusive: 1.2e-09 M
13,CC(=O)[C@@H]1CC[C@@H]2[C@@H]3CC=C4C[C@H](OS(=O)(=O)O)CC[C@@]4(C)[C@H]3CC[C@]21C,inconclusive: 1.1e-09 M
14,CCOC(=O)c1c(-c2ccc(OC)cc2)nc2nonc2c1N,inconclusive: 1.1e-09 M
15,CC(C(=O)Nc1ccccc1C(=O)N1CCCC1)n1nnc2ccccc21 (stereo unspecified),inconclusive: 1.1e-09 M
16,Cc1noc(COc2ccccc2OCC(N)=O)c1Cl,inconclusive: 1.6e-09 M
17,O=C1CCc2cc(S(=O)(=O)NCCC(=O)NC3CCN(Cc4ccccc4)CC3)ccc2N1,inconclusive: 2.2e-09 M
18,CCCC(c1nnnn1C1CCCC1)N1CCN(C(=O)c2ccco2)CC1 (stereo unspecified),inconclusive: 1.3e-09 M
19,CCN(CC)S(=O)(=O)c1ccc(Cl)c(C(=O)Nc2nncs2)c1,inconclusive: 1.7e-09 M
20,COC(=O)CC[C@@H](C)[C@@H]1CC[C@@H]2[C@@H]3CC[C@H]4C[C@@H](O)CC[C@@]4(C)[C@@H]3CC[C@]21C,inconclusive: 2.1e-09 M
